Data on one substance can be found in PMC9554868.

Chains of the proteins cited; added tags and fusions are not shown. Lines headed by an entry give the natural chain unless they say otherwise; changes in a name come on top.
UniProt Q9BY78: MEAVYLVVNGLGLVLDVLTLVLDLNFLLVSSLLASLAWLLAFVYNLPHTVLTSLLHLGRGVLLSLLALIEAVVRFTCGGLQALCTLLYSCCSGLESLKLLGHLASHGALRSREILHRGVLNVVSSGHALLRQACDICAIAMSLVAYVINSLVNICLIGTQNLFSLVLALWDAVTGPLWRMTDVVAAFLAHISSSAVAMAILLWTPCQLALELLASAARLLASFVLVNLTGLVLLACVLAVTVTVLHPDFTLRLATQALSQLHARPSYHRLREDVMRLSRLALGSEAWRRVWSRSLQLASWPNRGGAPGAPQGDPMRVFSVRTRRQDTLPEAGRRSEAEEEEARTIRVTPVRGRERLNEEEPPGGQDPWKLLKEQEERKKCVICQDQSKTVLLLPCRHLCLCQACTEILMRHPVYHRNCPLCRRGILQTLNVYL
UniProt Q05320: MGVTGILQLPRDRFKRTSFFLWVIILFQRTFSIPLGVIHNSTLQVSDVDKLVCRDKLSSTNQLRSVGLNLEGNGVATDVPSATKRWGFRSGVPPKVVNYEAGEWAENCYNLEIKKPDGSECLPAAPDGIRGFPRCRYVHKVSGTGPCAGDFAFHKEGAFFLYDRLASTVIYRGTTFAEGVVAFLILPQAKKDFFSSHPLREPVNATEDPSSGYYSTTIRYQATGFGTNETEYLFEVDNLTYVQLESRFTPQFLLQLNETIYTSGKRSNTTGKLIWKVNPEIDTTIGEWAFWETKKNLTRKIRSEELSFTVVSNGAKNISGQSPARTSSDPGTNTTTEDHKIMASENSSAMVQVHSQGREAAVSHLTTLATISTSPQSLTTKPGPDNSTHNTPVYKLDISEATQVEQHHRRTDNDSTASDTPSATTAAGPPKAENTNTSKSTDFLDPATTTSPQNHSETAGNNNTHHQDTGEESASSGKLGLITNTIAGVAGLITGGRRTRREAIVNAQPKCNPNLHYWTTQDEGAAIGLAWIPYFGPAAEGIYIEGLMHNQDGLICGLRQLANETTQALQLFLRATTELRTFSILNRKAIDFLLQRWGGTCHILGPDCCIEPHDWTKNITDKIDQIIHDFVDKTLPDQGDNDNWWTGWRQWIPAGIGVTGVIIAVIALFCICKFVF

These are yes or no findings as the source states them, for the method shown. Binding seen in cells or lysates may run through a third protein. Binding calls can cover weak binding; strength is not graded here.

This assay has as its target RING finger protein 26 (RNF26), wild type, Myc-FLAG-tagged (UniProt Q9BY78). In words: co-IP.

On to “EBOV-GP1,2 with a HiBiT tag (from UniProt Q05320)”, for which the binding entry is on record as “binds”.
